Record: PubChem BioAssay AID1259308 (NCATS, 2017)

Aim: 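Candidate targets for better recombinant protein yield in mammalian cells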 (primary screen)
Cells: human HEK293 embryonic kidney cells stably expressing firefly luciferase (HEK-CMV-Luc2-Hygro)
Reagent: single siRNA against human genes, 0.8 pmol siRNA per well
Duration: 72 h
Measured: 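Reporter luminescence and viable-cell signal on separate replicate plates, given as percent of non-targeting control and median/MAD z-scores, plus per-cell luciferase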
Reading the numbers: total luciferase, z-score: higher = more reporter protein produced
Active means: 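Active when the median/MAD z-score for overall luciferase is greater than 3; a gene was taken forward for validation with new siRNAs if at least two of its three siRNAs passed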
Meaning of the calls: active = raised luciferase; inactive = no rise
Shown is an unselected part of about 59,000 reagents. Over the whole deposit, about 1,510 (2.6%) were called active. 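Calls use total luciferase alone and ignore viability, so some active siRNAs may act by altering cell number.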 The numbers tell different reagents against one gene apart. Not all columns of the deposit are shown.

total luciferase, z-score, by target gene and reagent
TBX10: #1 0.212 inactive; #2 1.3 inactive; #3 0.832 inactive
KLHL13: #1 1.4 inactive; #2 -0.439 inactive; #3 -0.759 inactive
KIF2C: #1 -0.442 inactive; #2 0.493 inactive; #3 0.502 inactive
TCIM: #1 -0.167 inactive; #2 0.0491 inactive; #3 1.1 inactive
SYT16: #1 1.1 inactive; #2 1.17 inactive; #3 -2.1 inactive
RPL35: #1 -2.94 inactive; #2 -2.21 inactive; #3 -2.33 inactive

Quoted from the entries so far for reference:
total luciferase, z-score, by target gene and reagent
TCIM: #2 0.0491 inactive; #3 1.1 inactive
SYT16: #1 1.1 inactive; #2 1.17 inactive

The list goes on:
total luciferase, z-score, by target gene and reagent
OR11H12: #1 0.153 inactive; #2 0.346 inactive; #3 0.374 inactive
ATP1A1: #1 0.623 inactive; #2 -1.08 inactive; #3 1.98 inactive
TNFRSF10A: #1 0.0778 inactive; #2 -0.213 inactive; #3 -0.159 inactive
PGR: #1 0.024 inactive; #2 0.228 inactive; #3 0.617 inactive
KRTAP9-1: #1 -1.58 inactive; #2 -0.864 inactive; #3 0.754 inactive
ADAMTS2: #1 0.297 inactive; #2 -0.00607 inactive; #3 -1.83 inactive
SCN7A: #1 -0.408 inactive; #2 0.859 inactive; #3 -0.527 inactive
